The assay is described as follows: qHTS Assay for Modulators of Lamin A Splicing. Conditions: HeLa LMNA splicing GFP/RFP minigene ratio, 48 h. The method, boiled down:
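S3 HeLa stable clones carrying a lamin A-EGFP splicing minigene plus DsRed2 were seeded at 600 cells/well in Opti-MEM with 2% FBS, pin-dosed and incubated 48 h at 37°C. Acumen cytometry (488 nm) gave the GFP/RFP total-intensity ratio.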
A general note: Quantitative high-throughput screening tests each substance at several concentrations.

The mark [1] stands for this setting: measured here: GFP splicing reporter channel.
[2] abbreviates: measured here: RFP viability control channel.

Structures are written as SMILES. The list shows a part of the results. Further columns of the screen follow, without active or inactive calls. The list favours compounds with an active or inconclusive main result. Potencies come from curve fits of mixed quality, noted in brackets.

Regarding `Cc1cccc(-c2nnc3sc(-c4ccccc4C)nn23)c1`, the AC50 by setting is: under setting [1], 35.5 µM [rising, single point]; under setting [2], 35.5 µM [rising, single point]. Consider `COCCn1c(SCC(=O)Nc2cc(C)on2)nnc1-c1ccco1`, for which the AC50 under setting [2] was 3.16 µM [falling, partial curve, poor fit]. Turning to `O=S(=O)(c1cccc(NC(=S)N2CCN(c3ccccc3)CC2)c1)C(F)F`, the AC50 under setting [2] is 11.2 µM [rising, partial curve].

For `Cc1cccc(NC(=O)c2ccc3nsnc3c2)c1C`, the half-maximal activity concentration (AC50) under setting [2] is 3.98 µM [falling, partial curve]. On to `Cc1cc(C)c2oc(C(=O)Nc3nnc(C(C)C)s3)cc(=O)c2c1`, for which the AC50 is 0.00891 µM [rising, full curve, poor fit] under setting [1] and 0.00631 µM [rising, full curve, poor fit] under setting [2]. For the compound `NC(=O)c1sc2nc3c(c(-c4cccs4)c2c1N)CCCCC3`, the AC50 under setting [1] is 0.794 µM [rising, partial curve] and the AC50 under setting [2] was 0.0891 µM [rising, full curve, poor fit]. With `O=C(O)C[CH2][Ge](=[O])[O][Ge](=[O])[CH2]CC(=O)O`, the AC50 under setting [1] is 1.26 µM [falling, single point] and the AC50 under setting [2] is 5.62 µM [rising, single point]. For `CCC(=O)NC(=S)Nc1cccc(-c2nc3ncccc3o2)c1`, under setting [1], the AC50 is 35.5 µM [rising, single point]. Take `Cc1cccc(N(C)C(=O)CN(C)S(=O)(=O)c2ccc3[nH]c4c(c3c2)CCCC4)c1`: the AC50 under setting [2] is 35.5 µM [rising, single point].

Regarding `O=C(CN1C(=O)C2C3C=CC(C4CC34)C2C1=O)Oc1ccccc1` (centres undefined), the AC50 under setting [1] is 5.01 µM [falling, single point]. Turning to `C/C(=N\NC(=S)Nc1cc(S(=O)(=O)N2CCOCC2)ccc1Cl)c1ccccc1F`, the AC50 under setting [2] is 15.8 µM [rising, partial curve].

`CCOc1ccccc1N1C(=O)CC(Sc2n[nH]c(-c3ccccc3)n2)C1=O` (centres undefined): the AC50 by setting is: under setting [1], 14.1 µM [falling, single point]; under setting [2], 3.98 µM [falling, partial curve, poor fit]. For `O=C(c1cccc(C(F)(F)F)c1)N1CCOC12CCN(c1ncc(C(F)(F)F)cc1Cl)CC2`, the AC50 runs as follows: under setting [1], 5.62 µM [rising, full curve]; under setting [2], 12.6 µM [rising, partial curve]. On to `COc1ccc(CN(CCC(c2ccccc2)c2ccc(OC(C)C)cc2)C(=O)CCl)cc1OC` (centres undefined), for which the AC50 runs as follows: under setting [1], 7.94 µM [falling, partial curve, poor fit]; under setting [2], 12.6 µM [falling, partial curve]. Regarding `Cc1cccc(NC(=O)CSc2nc(C3CCCC3)nc3c2c(=O)n(C)c(=O)n3C)c1C`, the AC50 under setting [1] was 0.891 µM [rising, partial curve]. Take `CS(=O)(=O)N1CCC(Oc2ccccc2C(=O)N2CCN(CC3CC3)CC2)CC1`: the AC50 under setting [2] is 39.8 µM [falling, partial curve, poor fit]. For the compound `Clc1ccccc1Cc1noc(CN2CCCCC2c2ccccn2)n1` (centres undefined), the AC50 under setting [2] was 35.5 µM [falling, single point]. For the compound `Cc1nc(N2CCN(C(=O)c3ccc(Cl)cc3)CC2)c(C#N)c2c1COC(C)(C)C2`, the AC50 by setting is: under setting [1], 15.8 µM [rising, single point]; under setting [2], 35.5 µM [rising, single point].

For the compound `CCOc1ccc(-c2ccc(SCC(=O)Nc3nnc(CC)s3)nn2)cc1`, the concentration at half-maximal activity (AC50) is 35.5 µM [rising, single point] under setting [1] and 31.6 µM [rising, single point] under setting [2].

For `O=C(COc1ccccc1)N1N=C(c2cccnc2)CC1(O)C(F)(F)F` (centres undefined), the half-maximal activity concentration (AC50) is 11.2 µM [rising, single point] under setting [1] and 12.6 µM [rising, single point] under setting [2]. For `CCc1cc2ccccc2nc1SCC(=O)N1CCN(C(=O)c2ccco2)CC1`, the AC50 by setting is: under setting [1], 14.1 µM [rising, single point]; under setting [2], 15.8 µM [rising, single point]. For the compound `O=C(c1ccc(Cn2c(=S)[nH]c3ccccc3c2=O)cc1)N1CCN(c2ccccn2)CC1`, the AC50 under setting [1] was 28.2 µM [falling, partial curve, poor fit].

In the case of `Cc1cc(Nc2ccccc2)nc2cc(O)ccc12`, the half-maximal activity concentration (AC50) under setting [1] was 0.112 µM [falling, full curve].

Regarding `N#CCCn1cc(C=C(C#N)C#N)c(-c2ccc(-c3ccccc3)cc2)n1`, the AC50 under setting [2] is 25.1 µM [rising, single point].

For `N/C(Cc1ccc(Cl)cc1Cl)=N\OC(=O)Cc1cccs1`, the AC50 is, setting by setting: under setting [1], 14.1 µM [rising, single point]; under setting [2], 31.6 µM [rising, single point]. For `Cc1ccc2cc(-c3noc(C(C)(C)C)n3)c(=O)[nH]c2c1`, the AC50 runs as follows: under setting [1], 12.6 µM [rising, partial curve]; under setting [2], 35.5 µM [rising, single point]. Consider `CCN(CC)c1ncnc2sc3c(c12)CCC3`, for which the AC50 reads like this: under setting [1], 14.1 µM [rising, partial curve]; under setting [2], 17.8 µM [rising, single point]. With `CCCn1c2ccccc2c2nnc(SC(CC)C(=O)Nc3cc(C)on3)nc21` (centres undefined), the AC50 under setting [2] is 0.316 µM [rising, full curve, poor fit]. For the compound `COc1ccc2sc(N(CCN(C)C)C(=O)c3cc(Cl)sc3Cl)nc2c1`, the AC50 is 2.51 µM [rising, partial curve] under setting [1] and 1.26 µM [rising, full curve] under setting [2]. Regarding `C#CCNC(=O)c1cc2sccc2n1C`, the AC50 under setting [2] was 20 µM [falling, partial curve, poor fit]. For `Cc1onc(-c2ccccc2Cl)c1C(=O)Nc1nnc(-c2ccc(Cl)cc2Cl)s1`, the AC50 is, setting by setting: under setting [1], 10 µM [rising, partial curve]; under setting [2], 10 µM [rising, partial curve].

Regarding `Cc1cc(C)n(C(C)CC(=O)Nc2ccc(C)c(F)c2)n1` (centres undefined), the AC50 under setting [2] is 0.355 µM [falling, partial curve].

`Cc1ccc(NC(=O)Cn2cccc2)cc1Cl`: the AC50 under setting [2] is 20 µM [rising, partial curve]. With `CN1CCN2c3ccccc3Cc3ccccc3[C@@H]2C1`, the AC50 reads like this: under setting [1], 0.631 µM [falling, full curve, poor fit]; under setting [2], 14.1 µM [falling, single point]. In the case of `N#Cc1nc(COc2ccccc2F)oc1NCCCn1ccnc1`, under setting [1], the AC50 is 35.5 µM [rising, single point]. As to `Cc1ccccc1C(=O)NC(=S)Nc1sc2c(c1C#N)CCCC2`, under setting [2], the AC50 is 25.1 µM [rising, single point].

For the compound `O=S(=O)(NCC1COc2ccccc2O1)c1ccc2ccccc2c1` (centres undefined), the AC50 under setting [2] is 20 µM [rising, single point]. On to `CCOc1ccc(S(=O)(=O)c2c(C(=O)c3ccccc3)cnc3cc4c(cc23)OCCO4)cc1`, for which, under setting [2], the concentration at half-maximal activity (AC50) is 35.5 µM [rising, single point]. Same read-out and setting: to `O=C(Cc1ccccc1)N1CCN=C1SCc1ccc([N+](=O)[O-])cc1` belongs 22.4 µM [rising, single point]; to `CCOC(=O)C1C(=O)C=C(N2CCOCC2)CC1c1cccc(OC)c1` (centres undefined), 31.6 µM [rising, single point]. On the same count and under the same terms, the figure for `CCN(CC)c1ccc(NC(=O)CN2C(=O)c3cccnc3Oc3ccc(Cl)cc32)c(C)c1` is 35.5 µM [falling, single point]; for `O=C(Nc1ccccc1)Nc1ccc(Br)cc1F` it is 35.5 µM [rising, single point].

On to `CCCOc1ccc(CSC2=NCCN2)cc1[N+](=O)[O-]`, for which the AC50 is 35.5 µM [falling, single point] under setting [1] and 12.6 µM [falling, partial curve] under setting [2]. For the compound `Cc1ccc(S(=O)(=O)Nc2ccccc2C(=O)OC(C)C(=O)Nc2ccc3ccccc3c2)cc1[N+](=O)[O-]` (centres undefined), under setting [2], the AC50 is 12.6 µM [rising, single point]. Consider `CN(Cc1nc(C(c2ccccc2)c2ccccc2)no1)CC1COCCO1` (centres undefined), for which the AC50 is 0.158 µM [rising, full curve] under setting [1] and 0.178 µM [rising, full curve, poor fit] under setting [2]. On to `Cc1cc(N)c2ccccc2[n+]1CCCCCCCCCCCCCC[n+]1c(C)cc(N)c2ccccc21`, for which the AC50 was 3.98 µM [falling, full curve] under setting [1] and 2.82 µM [falling, full curve] under setting [2]. For the compound `COc1cccc(Cn2c(NCc3ccco3)nc3c2c(=O)n(C)c(=O)n3C)c1`, the AC50 under setting [2] was 2 µM [rising, full curve, poor fit]. On to `Cc1cccc(/C=C2/S/C(=N/N=C3\CC4CCC3(C)C4(C)C)NC2=O)c1` (centres undefined), for which the AC50 reads like this: under setting [1], 25.1 µM [falling, single point]; under setting [2], 35.5 µM [falling, single point]. Take `O=C(c1ccccc1Oc1ccccc1)N1CCN(c2ccccc2)CC1`: the AC50 under setting [2] is 17.8 µM [rising, single point].

As to `COc1ccccc1N1CCN(C(=O)/C=C/c2ccc(C)cc2)CC1`, the AC50 under setting [1] is 12.6 µM [rising, single point] and the concentration at half-maximal activity (AC50) under setting [2] was 12.6 µM [rising, single point]. On to `COc1ccc(OC(=O)COc2ccc(C)cc2)cc1`, for which the AC50 under setting [2] is 7.08 µM [rising, partial curve, poor fit]. Consider `N#C/C(=C/c1cccs1)c1nc2ccccc2[nH]1`, for which the AC50 under setting [2] was 0.447 µM [rising, full curve]. Take `COc1ccc(CNC(=O)CCn2c(=O)oc3ccccc32)c(OC)c1`: the AC50 is, setting by setting: under setting [1], 3.55 µM [rising, single point]; under setting [2], 11.2 µM [rising, partial curve, poor fit]. Regarding `C/C(=N/NC(=O)C1CC1(c1ccccc1)c1ccccc1)c1ccco1` (centres undefined), the AC50 under setting [2] was 31.6 µM [rising, single point]. With `Cc1ccc(-c2nn(-c3ccccc3)cc2/C=N/NC(=O)CSc2nnc(C)n2-c2ccccc2)cc1`, the AC50 is, setting by setting: under setting [1], 35.5 µM [rising, single point]; under setting [2], 35.5 µM [rising, single point].

Usually AC50 stands for the concentration at which the activity in the assay is half-maximal.
